Measured values reported in the supplement of paper PMC3334620.
In all, about 33,000 sequences were measured (“E-score (-0.5 to 0.5)”: median about -8e-05, highest 2% from about 0.23 on). This is one part of the list.

target: T1, Nrg2 (UniProt P38082); assay: PBM E-score (8-mer binding enrichment) (E-score (-0.5 to 0.5)); higher = stronger / more preferred TF binding; details: protein concentration: 100 nM; construct: GST-full length
T1 sequence: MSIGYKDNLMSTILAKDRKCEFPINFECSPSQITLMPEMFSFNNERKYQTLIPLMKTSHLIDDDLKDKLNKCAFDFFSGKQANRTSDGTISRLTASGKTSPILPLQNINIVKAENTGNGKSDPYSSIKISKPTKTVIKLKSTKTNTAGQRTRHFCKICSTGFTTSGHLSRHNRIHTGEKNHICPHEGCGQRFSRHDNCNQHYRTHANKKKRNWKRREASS
How it was run: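 The E-score, a modified Wilcoxon-Mann-Whitney statistic, was computed by the Universal PBM Analysis Suite for every ungapped eight-base word pooled with its reverse complement. Scans behind it were normalised with masliner after bound GST-tagged yeast transcription factors were detected with fluorescent anti-GST. The proteins, at about 100-200 nM, had been applied to universal all-10-mer Agilent arrays made double-stranded by primer extension.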

Sequence	PBM E-score
AGTAGTAT	0.114
GGACGTAC	-0.084
ACAGCAGC	0.0404
CACTCCAG	0.0644
CAGCTGAG	0.0994
CAGATCCG	0.0649
AAATAGCC	-0.1
CACAACTG	-0.133
CTTGGAAC	-0.0743
GGCAGCAC	-0.0882
CGATGTTC	-0.0442
GGTCCGGA	-0.0171
GAACAAGA	0.153
ATTGGTGC	-0.00397
GCGGCGCA	-0.0311
TAATAATA	0.0963
CTATACAA	-0.0419
CGGAGCGC	-0.0834
GTTCTGAA	0.0613
CAGCACCA	-0.131
TAGGCTCA	-0.234
TCTTGACA	0.1
ACTAAGTG	0.0198
CGGGCGTA	-0.117
CGGTCTAA	-0.118

Sequence	PBM E-score
GAGGAGCA	-0.186
ATCGTTTC	0.00418
CCAGAACA	0.106
AAAACTAG	0.0557
GCAAAGCC	-0.268
CACGGTAC	-0.212
CATTATCC	0.223
AAAGATGG	-0.0587
GCGTTCTA	0.101
GAGCATGA	-0.0488
GAAGTATA	0.187
CCTGCACC	-0.117
CAATCTGA	0.00996
CAGCTCAC	-0.161
CTTTGTCC	0.044
ACCCCGCC	0.0999
ACCAACAG	-0.00807
CCCGCCCA	0.0878
AACCTGGT	-0.00766
ACTAGCCT	0.0986
ACACCCCT	0.00269
ACCAGGAA	0.0925
GCGTACCA	-0.106
AGTGGCGC	0.0571
GGCAGACC	-0.373

Rewritten bar-delimited: part of the list above.
Sequence | PBM E-score
CTATACAA | -0.0419
CAGCACCA | -0.131
CGGTCTAA | -0.118
GAAGTATA | 0.187

Continuation.

Sequence	PBM E-score
GAGTCGGC	-0.158
AGGGTGTG	0.0336
ACCTTCGT	-0.0154
CTCTTTCA	-0.0678
CGTCAGAA	-0.171
CTCCATGC	-0.162
CCGATCGG	0.138
AATCCGCC	-0.0362
AAATGCTT	-0.0953
ATCCAGAT	0.0218
TCAGCACA	0.115
ACGGATGA	-0.0184
CCCCTTCA	-0.0586
ACGTTAGT	-0.0367
GGCTAGGA	-0.242
GTTCGGAA	0.00713
CTCGCTTC	-0.0616
ACGGTAGC	-0.102
ACATATGG	0.0141
CTACAACC	0.0231
GGCGCAGA	-0.0307
AACGTCGA	0.102
CAAACGTG	0.0273
CACAATAG	0.15
TAGCATAA	0.00712

Sequence	PBM E-score
GGCCGGAA	-0.0874
AAGACGGG	-0.0336
AGACGGAC	0.0662
GACCGTAA	-0.143
CAGCAGTA	-0.0779
GCATTACC	-0.195
CAGCTCTC	-0.272
AAATCTTG	0.0495
TAGGACTA	-0.111
ATCCCCCA	-0.415
GAACGCCC	-0.017
GCCTAAGC	-0.196
ACTGGAAG	-0.119
ATGTGATA	0.113
AATTACGT	-0.148
ACGAGCGC	-0.141
AATTTGGC	-0.142
ATTCGCCG	0.216
CGACACCA	-0.124
CGCGTAAG	0.0252
GTAGCGAA	0.0541
CAATTATC	0.289
CAGCGCCA	-0.18
TCTTTAAA	0.107
AGGGTTTA	0.235

Sequence	PBM E-score
ATTGAGGG	0.0646
ATAAGTAT	0.0612
CCGCTCCC	-0.249
AGACTCAC	-0.252
ATATCTAG	0.0771
CAGGTTAG	0.0599
CTTCGTTA	-0.0988
AATTGTGC	0.184
CGGCCGCC	-0.138
CCTATCGA	0.0835
GAGGCCGA	-0.0441
CGTCAGGC	-0.106
CTCCCACC	-0.233
CGTGCTCA	-0.05
CCACGACG	0.143
GATGCCAA	-0.173
ACTTTATG	0.0763
CGTCTAGA	-0.0818
GCGTACGA	0.0504
TAATAGGA	0.128
GGCCGGCA	0.0905
TGACCACA	-0.0754
ATTCCAAA	-0.0604
CGATAGAG	-0.044
CGCACTCA	0.118

Sequence	PBM E-score
ACTTCTAG	-0.275
AAACATAG	-0.124
CCATTGTC	0.0211
AAGTGCGG	0.133
GCCAGTAA	-0.111
ACATGTTC	0.0432
ACAATAGA	0.207
AGCCGTAG	0.0625
ATTGGGGG	-0.366
TGAGAAAA	0.135
GCACTGCC	0.0387
CATTTCTC	0.0263
AACCCCCA	-0.39
AAACCGAT	-0.137
CAGCGGCC	-0.154
GCGGCTCA	-0.0268
ATGTGGTG	0.00638
CGTTATAG	0.0243
ACAACAGA	-0.0576
TACCCGAA	0.0732
CGCACCTA	-0.093
ACATATCG	0.0325
ATAGGCAG	0.128
CGTACTTC	0.0661
GAGGTTCA	0.0461

Sequence	PBM E-score
AACTTATC	0.121
ATCACCCC	0.00817
CTAAAAAC	-0.233
CCTAGCCG	-0.0406
AGCCCAGA	0.083
GCGCGTCC	0.0553
ACTGATTA	0.0244
TCGTGTCA	-0.161
CCCTGCGC	0.1
AAACTATG	-0.0201
ACGTTAAA	0.0247
CCACGTAG	-0.189
CGTGCTTC	0.179
CGTTAAAG	0.00135
GCGCTTCA	0.0744
AAGACCAA	-0.0416
AAGGGGCG	-0.117
GAGACTGC	-0.161
CGAAGCTA	0.00827
GCAACAAA	0.176
CGCCTCTA	-0.0805
CCGACAGA	0.141
CCCCACAA	-0.012
ATGCTTGC	-0.0769
ACATTACG	0.111

Random excerpt: 6 records from the list, in no set order.
Sequence	PBM E-score
CGAAGCTA	0.00827
CCCTGCGC	0.1
AACTTATC	0.121
AAGACCAA	-0.0416
CCCCACAA	-0.012
GCAACAAA	0.176

Additional records.

Sequence	PBM E-score
AGGATCCT	0.131
CTGTACAG	-0.092
CTTTGGGA	-0.076
CGGCGCCC	0.00082
CGGCTCTC	-0.126
ATCGGGGA	0.0169
AGCGGATA	-0.042
GAGCTCAA	0.0843
ACGTTCCT	-0.0343
CTAACAAG	-0.0148
GGAATACA	0.0334
ACCAAGAG	0.0211
AGAGGCGC	-0.158
ACGACCAC	-0.00155
ACGCCCCT	0.0134
GGCTAGAA	-0.177
AGAGTGAA	-0.0477
CGAGGAGA	-0.0175
ATCTGTGC	0.133
ACAGCGCG	0.192
AGGAAGTC	-0.177
AAGGCAAG	-0.112
AGTAGATA	0.249
GCCCGACC	-0.107
AGTAATGA	0.111

Sequence	PBM E-score
CGCGCCTC	0.00193
AAGTCAGT	0.0388
AGTTGCCC	0.111
GGGAAAAA	0.102
AGCCCACC	-0.214
ACATTGAT	0.128
GAGGGCGA	-0.272
CTGATTCC	0.0509
CAGAGGTC	0.00355
CACGCCAC	-0.124
AAGCACGA	0.0236
AAAACAAA	0.0636
CGTCACGC	-0.0819
CCCGATCC	-0.167
GCATTTAC	0.00276
AATAGTTG	0.248
ACACCAAA	0.182
GCACGTGC	0.199
GCTGGAAC	-0.144
CGGATTCC	0.0163
AGGTAACC	-0.00416
ATCTTTGA	0.0956
GCCGACAA	0.049
AAGCCCGT	-0.153
GTCTTGAA	-0.109

Sequence	PBM E-score
AAGACTAG	-0.309
CTTCAGCA	-0.106
TAAAAACA	0.168
ACCCGATG	0.114
GCACAGCC	-0.12
CCAAACGC	-0.0177
TGGGTAAA	-0.169
ACGTTGTG	0.0485
CGGCGACA	0.0121
AATGGGAG	0.00219
GACTCCGA	-0.0724
ACGTCTCC	0.0223
GAGAAATC	0.0887
AGGTGGGA	-0.169
AATAAACA	0.0984
ACCGCTGA	0.0339
GGCATATA	0.126
GTTCCAAA	0.0625
ACCTCGAC	-0.0808
CTAGGGTA	0.0209
ATTCTATC	0.0609
AGGACACC	-0.0545
AATAGCAG	-0.0779
AATCGGTG	-0.0297
GATCATGC	-0.00571

Nothing new here: an excerpt of the list.
Sequence	PBM E-score
AATAGCAG	-0.0779
AATCGGTG	-0.0297

The listing continues:

Sequence	PBM E-score
CGGTTTAC	-0.142
TTTAGAAA	-0.134
CGATCTCC	-0.0956
GCTCTATA	-0.184
AGTCCTGA	-0.047
AATGGACT	-0.00789
CTGACTGA	-0.0542
AAAGTGGG	0.105
AATTATAT	0.138
AGAACAAA	0.208
CGCGCGAG	0.245
CAGCTAGC	0.025
AATGGGAT	-0.12
CACGAGAG	0.0216
CTAATCTC	-0.0439
TCAGCTAA	-0.0154
GACCTGAA	0.0073
CGCATGTC	-0.0691
GATACATA	0.246
CGGAACCG	-0.162
CGTAACCA	-0.157
CCTTCCCC	-0.0629
ACACCAGA	-0.0233
CCAAGGGC	-0.0903
AAACGTTA	-0.0287

Sequence	PBM E-score
AAAATCCG	-0.0444
ATACTATA	0.0708
AAAATCGA	0.152
GCGTCTGA	0.0277
CTGAGGCA	-0.167
CAACTCAA	0.0587
AACGATAT	0.175
CGATGCGC	-0.0131
CGTAAAAG	0.0729
CATTGAGC	-0.0461
TAGTCAAA	0.063
TTACGGAA	-0.0316
ACGGTCCT	-0.32
CGAAGAGC	-0.0663
CGATCTTA	-0.0263
ATGCGCTA	-0.0498
CCGCGTAA	-0.169
CTTAAGAC	0.0548
GTTTGCCA	0.0694
AAACCCAT	0.16
ACGAGACG	-0.0134
AACCGTGT	0.164
AGTGCCGG	-0.0411
ATGATGGG	0.0257
GCGTCAAC	-0.174

Sequence	PBM E-score
ATAGCAAG	0.172
AGCTTGAT	-0.0862
CACTAAGC	-0.0808
ACTGCACC	0.0738
CACGCAAG	-0.0359
GTTAGTCA	-0.115
CGGGGACA	0.0777
CAGTTCCG	-0.111
ATAAGCGC	0.126
ATGAGTCC	0.0174
AAATTTGG	-0.137
GCCAGTCC	-0.189
AGAGCCAT	-0.0389
CTGCACTC	0.0249
AGACCCCG	0.132
CTTGCACA	0.0595
AATGAGGG	-0.00097
GACAAAGC	0.00517
CCCACGTC	-0.0663
CGCGGCAG	0.109
ACCTATCT	0.0514
AGCCCGAC	-0.0916
ACTGTTTC	-0.093
GATCGAGC	0.12
GACCCCTA	0.151

Sequence	PBM E-score
ACCTGGAT	-0.0853
TATCGATA	0.106
AGCCTAAG	-0.243
ACGCGTAT	0.2
GGAGTAGA	0.00615
ATCGACAG	0.053
GTTGTCTA	-0.0246
CACACAGA	0.154
AACCTATA	-0.0271
AGCTGGTC	-0.0762
CGTCTAAG	0.0215
CCAAGACG	-0.119
ACTGTCCA	-0.0837
CTTGTCGA	-0.0417
ATGAGGTC	-0.142
AGTGGTCA	-0.145
CAAACGAA	-0.0374
AACAAACT	0.122
CCACCCGG	-0.0786
